Reference: PMC12341765 (Nature materials, 2021)
Where a sequence shows no end group, the ends are not given.

Assay: peptide made by a vendor
Conditions: whole synthesis, RP-HPLC

Substance	final HPLC purity [%]
K(N3)GGACDDQNPWRAYLDLLFPTDTLLLDLLWkk	91.8
5F AM-GGPLGLRSWK(CPQ2)-PEG2-C	91.8
5F AM-GILSRIVGGGK(CPQ2)-PEG2-GC	90.7
K(N3)GGAC(Cy7)DDQNPWRAYLDLLFPTDTLLLDLLWkk	91.0
ACDDQNPWRAYLKLLFPTKTLLLKLLWkk	92.2
5F AM-GGPQGIWGQK(CPQ2)-PEG2-C	90.3
5F AM-GGPLGVRGKK(CPQ2)-PEG2-C	95.7
5F AM-GGf-Pip-RSGGG K(CPQ 2)-PEG2-C	93.5
5F AM-GGPWGIWGQGK(CPQ2)-PEG2-C	91.8
5F AM-GSGSKIIGGGK(CPQ2)-PEG2-GC	92.0
AC(Cy7)DDQNPWRAYLKLLFPTKTLLLKLLWkk	90.1
5F AM-GGPVPLSLVMGK(CPQ2)-PEG2-GC	90.9
K(N3)GGACDDQNPWRAYLKLLFPTKTLLLKLLWkk	97.7
ACDDQNPWRAYLDLLFPTDTLLLDLLWkk	91.2
5F AM-GGGSGRSANAKGK(CPQ2)-PEG2-GC	94.2
AC(Cy7)DDQNPWRAYLDLLFPTDTLLLDLLWkk	93.7
5F AM-GGLVPRGSGK(CPQ2)-PEG2-C	91.2
K(N3)GGAC(Cy7)DDQNPWRAYLKLLFPTKTLLLKLLWkk	93.4
5F AM-GGPVPLSLVMK(CPQ2)-PEG2-C	92.6
5F AM-GGPVGLIGK(CPQ2)-PE G 2-C	91.6
